Values of other authors, collected in patent publication US20240238243A1, “METHODS AND COMPOSITIONS FOR TREATMENT OF HEART FAILURE WITH PRESERVED EJECTION FRACTION” (Northwestern University, priority 2023, published 2024).
For at least one compound, name, drawing or mass did not settle the structure.

Columns and labels:
VEGFR2 = conditions: Nacev et al., 2011; cited from earlier work
HK1 = conditions: known ability; cited from earlier work

CCC(C)n1ncn(-c2ccc(N3CCN(c4ccc(OCC5COC(Cn6cncn6)(c6ccc(Cl)cc6Cl)O5)cc4)CC3)cc2)c1=O (centres unmarked) [itraconazole]
N-glycosylation of VEGFR2 in ECs (VEGFR2): impede | HK1 mitochondrial localization (HK1): dislocates HK1 from the mitochondria
